PubChem BioAssay AID652259, Drosophila RNAi Screening Center, 2013
Assay: 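Identify new Wingless signalling regulators in fly cells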 (primary screen). System: Drosophila clone 8 imaginal disc epithelial cells. Reagent: long dsRNA against Drosophila genes. Conditions: pathway stimulated by co-transfected Wingless expression plasmid. Detection: 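Firefly luciferase from a tcf-site Wingless reporter, measured alongside co-transfected Renilla luciferase that tracks transfection; pathway stimulated by a Wingless plasmid; the firefly-to-Renilla ratio is not deposited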. Reading the numbers: firefly reporter light: higher = more Wg reporter light, before normalisation; Renilla control light: higher = more transfected or surviving cells. Rule for the call: 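Strong candidates differ from their plate mean by at least two out of four per-plate statistical tests; weak candidates meet just one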. Calls: active = candidate regulator (raises or lowers reporter); inactive = not a candidate.
In all, the deposit lists about 22,000 reagents; this is a random part of those with a known target gene and a result. Of all reagents, 233 (1.1%) were called active. 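Light values are raw, unnormalised plate reads; the ratio scores behind the reporter calls were not deposited.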 The numbers tell different reagents against one gene apart. A plus sign joins genes that one reagent is predicted to hit. Not given: the amount of reagent, the time to read-out, the dose of the treatment.

| Gene | reagent | reporter change call, replicate 1 | firefly reporter light, replicate 1 | firefly reporter light, replicate 2 | Renilla control light, replicate 1 | Renilla control light, replicate 2 | outcome |
| --- | --- | --- | --- | --- | --- | --- | --- |
| Trf | 1 | – | 3015 | 7320 | 1142 | 3915 | inactive |
| Strica | 1 | – | 3416 | 9281 | 1160 | 3080 | inactive |
| CG1288 | 1 | – | 12739 | – | 2701 | – | inactive |
| Adf1 | 1 | – | 19148 | – | 9835 | – | inactive |
| Adf1 | 2 | – | 9621 | – | 2424 | – | inactive |
| CG32603 | 1 | – | 28101 | – | 13859 | – | inactive |
| CG32603 | 2 | – | 6.36e5 | 6.48e5 | 3.66e5 | 2.52e5 | inactive |
| CG8507 | 1 | – | 12528 | – | 3360 | – | inactive |
| CG11635 | 1 | – | 3514 | 7339 | 704 | 2720 | inactive |
| vsg | 1 | – | 7000 | – | 2818 | – | inactive |
| Oct-TyrR | 1 | – | 17997 | – | 4000 | – | inactive |
| wwk | 1 | – | 3113 | 5124 | 1302 | 3428 | inactive |
| Grik | 1 | – | 2160 | 5238 | 1195 | 1659 | inactive |
| Grik | 2 | – | 12851 | – | 2669 | – | inactive |
| CG34423 + Mthfs | 1 | – | 4768 | 7040 | 648 | 2281 | inactive |
| jhamt | 1 | – | 1736 | 5712 | 978 | 2752 | inactive |
| CG17230 | 1 | – | 11356 | – | 4496 | – | inactive |
| Prosbeta6 | 1 | – | 2821 | – | 1301 | – | inactive |
| Hesr | 1 | – | 22202 | – | 10182 | – | inactive |
| CG7329 | 1 | – | 2820 | 6955 | 1445 | 2329 | inactive |
| Rpp14b | 1 | – | 7664 | – | 3459 | – | inactive |
| CG4098 | 1 | – | 9786 | – | 4268 | – | inactive |
| ppk22 | 1 | – | 5.08e5 | 5.35e5 | 2.15e5 | 2.29e5 | inactive |
| CG10973 | 1 | – | 3376 | – | 1749 | – | inactive |
| ImpL2 | 1 | – | 3257 | – | 1305 | – | inactive |
| eco | 1 | – | 4777 | – | 1939 | – | inactive |
| CG15258 | 1 | – | 2801 | 5296 | 1328 | 2276 | inactive |
| CG14712 | 1 | – | 3904 | – | 1196 | – | inactive |
| tty | 1 | – | 4001 | 8245 | 1545 | 3594 | inactive |
| CG43658 | 1 | – | 19592 | – | 7988 | – | inactive |
| CG43658 | 2 | – | 25724 | – | 8963 | – | inactive |
| Galphaq | 1 | – | 7316 | – | 2428 | – | inactive |
| Cyp9f2 | 1 | – | 9913 | – | 3745 | – | inactive |
| Dnaaf4 | 1 | – | 2995 | 8662 | 945 | 3525 | inactive |
| crol | 1 | Wg reporter activity raised | 46548 | – | 1916 | – | active |
| crol | 2 | – | 1.26e6 | 1.46e6 | 2.61e5 | 2.23e5 | inactive |
| bumpel | 1 | – | 13421 | – | 4074 | – | inactive |
| twin | 1 | – | 4327 | 6096 | 2394 | 2006 | inactive |
| twin | 2 | – | 27969 | – | 19410 | – | inactive |
| twin | 3 | – | 6.30e5 | 6.06e5 | 2.53e5 | 1.13e5 | inactive |
| CG14022 | 1 | – | 2839 | 6949 | 1409 | 2248 | inactive |
| Mvb12 | 1 | – | 21545 | – | 8880 | – | inactive |
| Syx17 | 1 | – | 7293 | – | 2625 | – | inactive |
| CG14277 | 1 | – | 2272 | 6227 | 1052 | 3296 | inactive |
| ND-39 | 1 | – | 5344 | – | 2290 | – | inactive |
| CG8861 | 1 | – | 2258 | – | 1561 | – | inactive |
| CG8861 | 2 | – | 12976 | – | 2464 | – | inactive |
| Atg10 + CG12822 | 1 | – | 2466 | 5858 | 170 | 3116 | inactive |
| twi | 1 | Wg reporter activity raised | 6164 | 10987 | 728 | 1760 | active |
| Myo10A | 1 | – | 12406 | – | 4224 | – | inactive |
| Myo10A | 2 | – | 21724 | – | 10040 | – | inactive |
| Myo10A | 3 | – | 16320 | – | 7312 | – | inactive |
| Cmpk | 1 | – | 3739 | 8010 | 1562 | 2705 | inactive |
| Tcs3 | 1 | – | 5222 | – | 2637 | – | inactive |
| Crag | 1 | – | 2019 | 8582 | 802 | 2075 | inactive |
| CG12643 | 1 | – | 20215 | – | 9878 | – | inactive |
| Or43a | 1 | – | 2453 | 10195 | 717 | 2807 | inactive |
| CG5608 | 1 | – | 7601 | – | 3232 | – | inactive |
| SNF4Agamma | 1 | – | 3049 | – | 1345 | – | inactive |
| SNF4Agamma | 2 | – | 4432 | 7.74e5 | 2217 | 4.00e5 | inactive |
| SNF4Agamma | 3 | – | 23736 | – | 5769 | – | inactive |
| SNF4Agamma | 4 | – | 2422 | 3810 | 724 | 1498 | inactive |
| T48 | 1 | – | 7216 | – | 3157 | – | inactive |
| Pebp1 | 1 | – | 37724 | – | 7668 | – | inactive |
| ara | 1 | – | 5017 | – | 1001 | – | inactive |
| Inx5 | 1 | – | 14391 | – | 7846 | – | inactive |
| Etf-QO | 1 | – | 2763 | 5159 | 518 | 1984 | inactive |
| Alg10 | 1 | – | 5282 | – | 2058 | – | inactive |
| CG15011 | 1 | – | 2643 | – | 1496 | – | inactive |
| CG4477 | 1 | – | 8036 | – | 4189 | – | inactive |
| RpL22 | 1 | – | 28000 | – | 18409 | – | inactive |
| RpL22 | 2 | – | 4.22e5 | 4.48e5 | 1.41e5 | 1.74e5 | inactive |
| CG32055 | 1 | – | 5773 | – | 2021 | – | inactive |

Reprinted from the entries so far, 8 entries:
| Gene | reagent | reporter change call, replicate 1 | firefly reporter light, replicate 1 | firefly reporter light, replicate 2 | Renilla control light, replicate 1 | Renilla control light, replicate 2 | outcome |
| --- | --- | --- | --- | --- | --- | --- | --- |
| eco | 1 | – | 4777 | – | 1939 | – | inactive |
| CG15258 | 1 | – | 2801 | 5296 | 1328 | 2276 | inactive |
| CG14712 | 1 | – | 3904 | – | 1196 | – | inactive |
| tty | 1 | – | 4001 | 8245 | 1545 | 3594 | inactive |
| CG43658 | 1 | – | 19592 | – | 7988 | – | inactive |
| CG43658 | 2 | – | 25724 | – | 8963 | – | inactive |
| Galphaq | 1 | – | 7316 | – | 2428 | – | inactive |
| Cyp9f2 | 1 | – | 9913 | – | 3745 | – | inactive |
